Measurements published in PMC1414084.
Results are given in words; binding and its absence hold for the method and conditions named. Some binding calls cover weakened binding; strength is not graded here. Values belong to the binder of their own block, whether it stands above or below them.

Columns and labels:
Assay in all cases: two-hybrid; mammalian two-hybrid; bait fused to the Gal4 DNA-binding domain (BIND), prey to the VP16 transcriptional activation domain (ACT); luciferase reporter; cultured mammalian cells, 37°C; positive from 3 times the background activity (level 1), the selected set is level 2 (>=5 to <10 times) and level 3 (>=10 times)
[1] = biological target: T1, PH0469, hypothetical protein (Pyrococcus horikoshii OT3) (UniProt O58206)
T1 sequence: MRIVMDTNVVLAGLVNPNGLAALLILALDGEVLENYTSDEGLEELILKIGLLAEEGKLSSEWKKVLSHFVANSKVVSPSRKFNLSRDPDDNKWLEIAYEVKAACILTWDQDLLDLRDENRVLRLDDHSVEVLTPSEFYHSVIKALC

[2] = biological target: T2, PHS013, hypothetical protein (Pyrococcus horikoshii OT3) (UniProt O73966)
T2 sequence: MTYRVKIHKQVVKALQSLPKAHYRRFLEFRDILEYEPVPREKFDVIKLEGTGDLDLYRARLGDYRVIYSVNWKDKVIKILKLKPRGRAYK

[3] = biological target: T3, PH0354, hypothetical protein (Pyrococcus horikoshii OT3) (UniProt O58092)
T3 sequence: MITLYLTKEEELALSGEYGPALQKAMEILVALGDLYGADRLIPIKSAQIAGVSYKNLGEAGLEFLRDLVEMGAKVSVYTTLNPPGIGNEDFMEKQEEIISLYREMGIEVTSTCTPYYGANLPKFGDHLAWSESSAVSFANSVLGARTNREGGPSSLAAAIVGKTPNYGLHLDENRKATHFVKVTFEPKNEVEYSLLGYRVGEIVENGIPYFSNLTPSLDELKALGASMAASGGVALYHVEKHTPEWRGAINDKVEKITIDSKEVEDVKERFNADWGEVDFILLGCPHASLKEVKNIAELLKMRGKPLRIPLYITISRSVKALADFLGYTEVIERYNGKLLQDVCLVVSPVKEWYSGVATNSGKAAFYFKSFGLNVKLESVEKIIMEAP

[4] = biological target: T4, PH0403, hypothetical protein (Pyrococcus horikoshii OT3) (UniProt O58140)
T4 sequence: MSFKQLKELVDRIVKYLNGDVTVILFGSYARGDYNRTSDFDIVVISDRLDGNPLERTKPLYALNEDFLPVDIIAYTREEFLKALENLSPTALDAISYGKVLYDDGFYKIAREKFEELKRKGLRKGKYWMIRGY

[5] = biological target: T5, PH0813, hypothetical protein (paralog to PH0812) (Pyrococcus horikoshii OT3) (UniProt O58543)
T5 sequence: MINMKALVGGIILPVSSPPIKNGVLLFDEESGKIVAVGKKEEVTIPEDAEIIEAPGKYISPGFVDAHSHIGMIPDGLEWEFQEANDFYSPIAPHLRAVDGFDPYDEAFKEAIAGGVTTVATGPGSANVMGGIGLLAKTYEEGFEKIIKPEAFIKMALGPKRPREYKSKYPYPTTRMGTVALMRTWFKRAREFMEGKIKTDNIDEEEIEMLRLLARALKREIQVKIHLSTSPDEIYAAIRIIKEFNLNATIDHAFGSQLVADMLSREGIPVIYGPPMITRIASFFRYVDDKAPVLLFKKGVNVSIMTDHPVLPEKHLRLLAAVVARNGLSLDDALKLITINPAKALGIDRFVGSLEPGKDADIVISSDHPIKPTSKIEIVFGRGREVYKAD

[6] = biological target: PH0073, hypothetical protein (paralog to PH0074) (Pyrococcus horikoshii OT3) (UniProt O57790)
[7] = biological target: T6, PH0074, hypothetical protein (paralog to PH0073) (Pyrococcus horikoshii OT3) (UniProt O57789)
T6 sequence: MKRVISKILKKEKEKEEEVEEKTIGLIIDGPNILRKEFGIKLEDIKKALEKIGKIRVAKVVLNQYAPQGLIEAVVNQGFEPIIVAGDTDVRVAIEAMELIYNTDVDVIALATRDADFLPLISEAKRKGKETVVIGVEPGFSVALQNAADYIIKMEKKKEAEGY

[8] = biological target: T7, PH1024, hypothetical protein (Pyrococcus horikoshii OT3) (UniProt O58773)
T7 sequence: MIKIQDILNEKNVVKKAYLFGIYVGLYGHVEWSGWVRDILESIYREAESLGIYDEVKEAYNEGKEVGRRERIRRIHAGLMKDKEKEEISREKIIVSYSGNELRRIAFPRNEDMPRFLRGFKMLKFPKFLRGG

[9] = biological target: PH1025, hypothetical protein (Pyrococcus horikoshii OT3) (UniProt O58772)
[10] = biological target: T8, PH1354, SNO like protein (Pyrococcus horikoshii OT3) (UniProt O59079)
T8 sequence: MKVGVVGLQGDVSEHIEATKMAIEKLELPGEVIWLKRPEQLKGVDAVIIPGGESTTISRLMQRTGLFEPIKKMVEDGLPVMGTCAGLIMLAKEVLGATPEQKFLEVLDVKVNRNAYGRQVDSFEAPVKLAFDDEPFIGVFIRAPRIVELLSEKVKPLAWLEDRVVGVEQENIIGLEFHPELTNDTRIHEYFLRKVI

[11] = biological target: PH1355, SNZ like protein (Pyrococcus horikoshii OT3) (UniProt O59080)

binding [4]: binds
B4: PH0402, hypothetical protein (protein, UniProt O58139 1-140)
chain: MGMFKRREYERWIVEAKRTLSSAYSDLKEGYYEWASFKAQQAAELAVKAILRGLGFAPIGHSITRLLKDLSGSLNLDIPREILYFAMELDRNYIAPRYPDAYPEGSPFEYYSEDIAKELVKYAEKIIKFVEVVVDELQAT

binding [6]: binds
binding [7]: binds
B6: PH0073, hypothetical protein (paralog to PH0074) (protein, UniProt O57790 1-195)
chain: MATMARWERIVEGVKSIALIKRKIISRGKRIALLVDGPNILRKELGVHLEDIVEALSSLGNIRVAKVILNQYAPQSLIEAVSNQGFEPVIVAGEIGVKLAVEAMREVYNPNIDIIALATRNTEFVPIILKAKEKGKETAIIGVEPGFSSALKHAADYVIVLESRGELSEEGNIEDIEEGKGEGGRGRRKNDRLDN

binding [8]: binds
binding [9]: binds
B7: PH1025, hypothetical protein (protein, UniProt O58772 1-236)
chain: MQTQQERISTGVKGLDELIEGGLIPGRVYLITGPPGSGKTTFGMQFLLEGARRGEKVAYISLIHKPEEVVRDMVRFDPSVYVYVNNWRLILYDLGPILWRESTKVPTWRSVLSRIREITENEKITRLVIDPLTAIDFPLQDPVEKRVELAKFVRSLENLGVTTYLIAEMVELDKYSEEHYLVSGIIMLHYFMHEGRMIRAIQIFKMRGTKHDPNLKLLKFTDQGLVVYNKSPFEVV

Continued, binder first:

B1: PH0468, hypothetical protein (protein, UniProt O58207 1-108)
chain: MMAVENAVDYPISVRLPSYVVEKIDELVKKRKFRSRSDFIKFAVTFALGQIMMEEARERAKNEPEELEKERKEAWMRLRAGDFSKEDEETLELLKKVDARYKRLGGRS
binding [1]: binds

B2: PHS014, hypothetical protein (protein, UniProt O73967 1-67)
chain: MRMEKVGDVLKELERLKVEIQRLEAMLMPEERDEDITEEEIAELLELARDEDPENWIDAEELPEPED
binding [2]: binds

B3: PH0353, hypothetical protein (protein, UniProt O58091 1-134)
chain: MKLKGKGIGKVVVEGEVIVSRKPLSFLGGVDPETGTITDPESDIKGESITGKILVFPKGKGSTVGSYILYALSKNGKGPKAIIVEEAEPIVTAGAIISGIPLITNVDISKLKTGMRVRINPQEGEVEILAEGNL
binding [3]: binds

B5: PH0812, hypothetical protein (paralog to PH0813) (protein, UniProt O58542 1-381)
chain: MLVIKGVKAYTMSNIGVVEKANIIVKDGKIVDVTQELPPLEGKTVVDGEGLIALPGLIDPHTHLGVYSLEWEYGDHGTEKSDPITPHFKVIDGLDIFDPGFKDAIAGGVTTVSVEPGAPLSWASYEKTTIMPGQSAILKTNGRIIKEEAGIKIAVGGHVRKFLEELKLTPTTRMGIFAMIRMILHKAKEYLEKEDKQYDPKLEALATLLKNETVARVHAHLSRDMLSIIRLLKEFDIKNIIIEHGTEAYKISDVLKENGIPVILGPVIFPRRGVELRELSSKLAFQLYNSGMMFALTTDHPALPIQYLTLVAAACVGEGLPYEEALKSITINPAKILGIDRFVGSLEPGKDADIVLFDGDPLNPESKVMYTIIDGEVVYER
binding [5]: binds

B8: PH1355, SNZ like protein (protein, UniProt O59080 1-335)
chain: MDKLKIIMEKGTERLKRGFAKMVKGGVIMDVTNAEQARIAEEAGAVAVMALHKVPADIRKAGGVARMAPVEKIQEIMDAVTIPVMAKCRIGHEAEARILEALGVDMIDESEVLTPADPFFHIYKKKFTAPFVCGARNLGEAVRRIWEGAAMIRTKGEAGTGNIIEAVRHVRLVNENIRLIQRMTDEEIYGVAEKFAEPYLRLAFSVKEISGLPKRVLENEPIYEGFTYREIVEDIYKILLEIKKLGRLPVVNFAAGGVATPADAALMMAMGMDGVFVGSGIFKSSNPPKMARAIVEAVNHWDEPDVLAEISREIGEPMRGQAIEELQVRMEERGI
binding [10]: binds
binding [11]: binds
